Experiment: Chelation test with La3+ (HPLC retention time shift)
Assay type: physicochemical
Settings: subsequent to mixing with La^3+

Compound | chelation of La^3+ indicated by shift in HPLC retention time
CC(C)CCC(c1cccc(C(=O)O)n1)N1CCOCCOCCN(Cc2cccc(C(=O)O)n2)CCOCCOCC1 (centres unmarked) [TOPA-[C7]-isopentyl, 6-((16-(1-(6-carboxypyridin-2-yl)-4-methylpentyl)-1,4,10,13-tetraoxa-7,16-diazacyclooctadecan-7-yl)methyl)picolinic acid] | rapid chelation of La^3+
O=C(O)c1cccc(CN2CCOCCOCCN(C(c3ccccc3)c3cccc(C(=O)O)n3)CCOCCOCC2)n1 (centres unmarked) [TOPA-[C7]-phenyl, 6-((16-((6-carboxypyridin-2-yl)(phenyl)methyl)-1,4,10,13-tetraoxa-7,16-diazacyclooctadecan-7-yl)methyl)picolinic acid] | rapid chelation of La^3+

— patent US20250145646A1, “MACROCYCLIC COMPOUNDS AND DIAGNOSTIC USES THEREOF” (JANSSEN BIOTECH, INC., priority 2021, published 2025)
